Assay results as given in PubChem BioAssay (NCATS).
Some of the results follow. These are further read-outs of the screen, such as a control signal, another cell line or another target. No call is given for them. Compounds called inactive in the main read-out are mostly missing here. The note in brackets gives the kind of curve behind each potency; many fits are weak.

Legend:
[1] = qHTS for identification of novel therapeutic agents for treatment of microphthalmiaassociated transcription factor (MiT) renal cell carcinoma (RCC) (AID 1963991); details: CellTiter-Glo, 48 h; for z-score: stronger effect = lower value;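 for z-score: curves scaled with 100% = DMSO viability and 0% = empty wells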
How it was run: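 UOK109/UOK124/UOK145 (TFE3 fusions, three partners); 500 cells/well; MIPE v4.0, 1912 cpds, 11 conc.; 48 h, 37 C; CellTiter-Glo, 15 min RT; lum. Norm.: DMSO 100%, empty 0%.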

[2] = S16 Schwann cell PMP22 intronic element beta-lactamase assay (AID 624044); details: S16 rat Schwann cells, PMP22 element beta-lactamase FRET, 24 h
How it was run: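 Beta-lactamase reporter under a PMP22 intronic regulatory element in stable S16 rat Schwann cells; 24 h compound exposure. 460 nm blue signal normalized between DMSO (0%) and potassium clavulanate, with 535 nm FRET tracking viability; curves classed by r2 and response.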

[3] = TFE3-RCC UOK109 viability, measured here: UOK109 Z-AUC
[4] = TFE3-RCC viability, measured here: UOK124 Z-AUC
[5] = TFE3-RCC viability, measured here: UOK145 Z-AUC
[6] = TFE3-RCC viability, measured here: UOK145 cell viability
[7] = TFE3-RCC viability, measured here: UOK124 cell viability

Row | SMILES | z-score [1, 3] | z-score [1, 4] | z-score [1, 5] | AC50 [1, 6] | AC50 [1, 7] | AC50 ([2]; measured here: 460 nm blue channel) | AC50 ([2]; measured here: 530 nm viability channel)
1 | C[C@@H]1[C@@H](C(=O)C[C@H]2O[C@@H]3O[C@]4(C)CC[C@@H]5[C@H](C)CC[C@@H]([C@H]2C)[C@@]35OO4)O[C@@H]2O[C@]3(C)CC[C@H]4[C@H](C)CC[C@@H]1[C@@]24OO3 | 0.267 | 0.0316 | 0.607 | 26.4 µM [falling, partial curve, poor fit] |  |  | 
2 | Cc1c(N)nc([C@H](CC(N)=O)NC[C@@H](N)C(N)=O)nc1C(=O)N[C@H](C(=O)N[C@@H](C)[C@H](O)[C@@H](C)C(=O)N[C@@H](C(=O)NCCc1nc(-c2nc(C(=O)NCCC[S+](C)C)cs2)cs1)[C@@H](C)O)C(O[C@H]1O[C@H](CO)[C@H](O)[C@@H](O)[C@@H]1O[C@H]1O[C@H](CO)[C@@H](O)[C@H](OC(N)=O)[C@H]1O)c1cnc[nH]1 (stereo not given in full) | -0.763 | -0.18 | -0.641 | 7.43 µM [falling, partial curve] | 5.9 µM [falling, partial curve] |  | 
3 | O=C(N[C@H]1CN2CCC1CC2)c1ccc(Cl)cc1 | -0.153 | 0.194 | 0.286 | 8.33 µM [falling, full curve] |  |  | 
4 | C[C@](O)(CS(=O)(=O)c1ccc(F)cc1)C(=O)Nc1ccc(C#N)c(C(F)(F)F)c1 | -1.52 | -0.109 | -1.13 | 2.35 µM [falling, full curve] | 16.6 µM [falling, partial curve] | 14.1 µM [falling, single point] | 11.2 µM [falling, single point]
